PubChem BioAssay AID493014 (National Center for Advancing Translational Sciences (NCATS), 2011)
Among all 340,000 compounds or so, about 170 (0.05%) were called active. The inconclusive results got no clear call from the source; some entries with a clear call stand among them for comparison. Calls come from the whole dose curve; as a rule, active = well fitted inhibition curve with a large enough effect in the signal ratio, with a control signal flat (not every such curve was filed as active); inconclusive = small, poorly fitted or top-dose-only effect, or effect the other way, or a change in a side signal; inactive = flat fitted curve, though single readings scatter; the % refers to the signal ratio. Potencies of inconclusive entries are doubtful fits and often do not repeat.

experiment: qHTS Assay to Find Inhibitors of Chronic Active B-Cell Receptor Signaling; details: ABC-DLBCL IkBa-CBG/CBR reporter, luminescence ratio (green luciferase fused to IkBa over red control in TMD8 lymphoma cells), 4 h; activity change, negative = inhibition: at 46.1 µM (top of the series) unless noted;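 for activity change, negative = inhibition: plate controls were basal doxycycline-induced cells for no effect and cells given 10 µM MG132 for full effect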
How it was run: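 TMD8 ABC-DLBCL cells carrying doxycycline-inducible green luciferase fused to IkappaBalpha plus unfused red luciferase were exposed to compounds (up to 46 uM) for 4 hrs at 37C. Activity came from the overlap-corrected green/red luminescence ratio.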
Potency is the fitted concentration of half-maximal effect.

Row | Compound | activity change, negative = inhibition | Potency
1 | CC(C)OCCCn1c(=S)[nH]c2ccc(N3CCOCC3)cc2c1=O | inconclusive: -22.9% | –
2 | O=C(Nc1ccc2c(c1)Cc1ccccc1-2)c1ccc(Br)o1 | – | inconclusive: 23.1 µM [falling, single point]
3 | N#CCSc1nnc(COc2cccc3ccccc23)n1-c1ccccc1 | inconclusive: -16.4% | –
4 | Cc1ccc(-c2nc(CS(=O)CC(=O)NCCN3CCCC3)c(C)o2)cc1 (stereo unspecified) | inconclusive: -0.145% | –
5 | COC(=O)CSc1nc(-c2cccs2)ccc1C#N | inconclusive: 6.27% | –
6 | Cn1nccc1C(=O)N1CCCC(C(=O)c2cccc3ccccc23)C1 (stereo unspecified) | inconclusive: 0.528% | –
7 | O=c1oc2ccccc2c(Nc2ccc(O)cc2)c1[N+](=O)[O-] | – | inconclusive: 7.94 µM [falling, partial curve, poor fit]
8 | CCOC(=O)C1=C(COC(=O)/C=C/c2cccc(OC)c2)NC(=O)NC1C (stereo unspecified) | inconclusive: -5.21% | –
9 | Cn1c(SCC(=O)N2CCCc3ccccc32)nc2ccccc2c1=O | inconclusive: 5.03% | –
10 | C(=N\n1cnnc1)/c1ccc(N2CCOCC2)s1 | inconclusive: -1.23% | –
11 | O=C(OC1CCOC1=O)c1ccc2ccccc2n1 (stereo unspecified) | – | inconclusive: 5.8 µM [falling, single point]
12 | Cc1nc(Cl)c(C(=O)Nc2cccc(F)c2)c(C)c1Cl | inconclusive: 0.827% | –
13 | Cc1ccc(C(=O)Cn2nnc(-c3ccccc3)n2)cc1 | inconclusive: 13.9% | –
14 | CC(C)(C)c1ccc(/C=C/C(=O)N2CCCCC2)cc1 | inconclusive: 10.1% | –
15 | O=c1c2ccccc2nc2oc3ccccc3n12 | – | inconclusive: 2.82 µM [rising, full curve, poor fit]
16 | CNC(=S)N/N=C/c1cn(CCOc2ccccc2OC)c2ccccc12 | – | inconclusive: 25.9 µM [falling, partial curve]
17 | COc1cc2c(cc1OC)CN(C(=O)/C=C/c1ccc([N+](=O)[O-])cc1)CC2 | inactive: 0.197% | –
18 | O=C(Cn1c(=O)n(-c2ccccc2)c(=O)c2sccc21)NCc1ccccc1 | – | inconclusive: 11.2 µM [falling, partial curve]
19 | O=C(Nc1nc2ccc(S(=O)(=O)N3CCCCC3)cc2s1)c1cccnc1 | inconclusive: -3.57% | –
20 | CCc1cccc(NC(=O)Cn2nc(-c3ccc(OC)cc3)ccc2=O)c1 | – | inconclusive: 12.6 µM [falling, single point]
21 | O=C1OCCC1(c1ccccc1)c1ccccc1 | inactive: 2.19% | –
22 | Cc1cccc(C)c1Nc1sc(C(=O)c2ccccc2)c(N)c1C(=O)Nc1ccc(F)cc1 | inconclusive: -17.9% | –
23 | CC(=O)c1ccc(C(=O)N2CCc3c([nH]c4ccccc34)C2c2ccccn2)s1 (stereo unspecified) | – | inconclusive: 11.2 µM [falling, single point]
24 | Nc1nc2c(s1)CCc1ccccc1-2 | inactive: -0.0036% | –
25 | O=C(c1cncc(Br)c1)N1CCN(c2ccc(N3CCOCC3)nn2)CC1 | inconclusive: 0.754% | –
26 | CCOC(=O)c1oc2ccccc2c1CN1CCCCC1 | inconclusive: 0.391% | –

Row | Compound | activity change, negative = inhibition | Potency
27 | CCc1ccc(NC(=S)NCC2CCCN2CC)cc1 (stereo unspecified) | – | inconclusive: 35.5 µM [falling, partial curve, poor fit]
28 | COc1ccc(CCNC(=O)c2ccc(CNc3nc(=S)[nH]c4ccccc34)cc2)cc1OC | – | inconclusive: 25.1 µM [falling, single point]
29 | COc1cc(CNc2ccc(N3CCCC3)cc2)ccc1OCc1ccccc1 | – | inconclusive: 29.1 µM [falling, single point]
30 | Cc1ccc(O)c(NC(=O)c2cccc(NC(=O)c3ccco3)c2)c1 | – | inconclusive: 20.6 µM [falling, partial curve, poor fit]
31 | CC(C)CC(=O)Nc1cc2nn(-c3ccccc3)nc2cc1Cl | inconclusive: 28.3% | –
32 | CCOC(=O)c1cc2cc(C)ccc2[nH]1 | inconclusive: 13.1% | –
33 | CSc1nc(-c2ccccc2)nc(C(Cl)Cl)n1 | inconclusive: -13.2% | –
34 | CC(Sc1nc(-c2ccc(F)cc2)cs1)C(=O)Nc1ccc(Cl)cn1 (stereo unspecified) | – | inconclusive: 6.51 µM [falling, partial curve, poor fit]
35 | COc1ccc(CCNc2nc(-c3cccnc3)cs2)cc1OC | inactive: -1.8% | –
36 | COc1ccc(S(=O)(=O)NN(C)C)cc1N(C)S(=O)(=O)c1ccc(Cl)cc1 | inactive: -14.3% | –
37 | Cn1cccc1C(=O)NC(=O)COC(=O)c1ccccc1Sc1ccccc1C#N | inconclusive: -1.27% | –
38 | COc1ccc(S(=O)(=O)n2cnc3ccccc32)cc1 | inactive: 2.31% | –
39 | C=CCN1C(=O)C(O)(CC(=O)c2ccco2)c2cc(Br)ccc21 (stereo unspecified) | – | inconclusive: 22.4 µM [falling, single point]
40 | Cc1cc(C)nc(SCNC(=O)c2ccccc2)n1 | inconclusive: 0.68% | –
41 | Cc1ccc(/C=C/c2ccc(N(C)C)cc2)[n+](C)c1 | inactive: 0.483% | –
42 | CC(C)Oc1cccc(-c2cc(C(=O)N3CCN(c4ncccn4)CC3)c3ccccc3n2)c1 | – | inconclusive: 29.1 µM [falling, single point]
43 | O=C(CCNC(=O)c1ccc(Br)cc1)Nc1cccc(S(=O)(=O)N2CCCCC2)c1 | inconclusive: -12% | –
44 | COc1ccc(CNCc2cn(-c3cccc(F)c3)nc2-c2ccc(C)o2)cc1 | inconclusive: -17.7% | –
45 | O=C(NC(=S)Nc1ccc(S(=O)(=O)NC2CCCCC2)cc1)c1cccs1 | – | inconclusive: 16.4 µM [rising, partial curve, poor fit]
46 | CCCCN1C(=O)CC(C(=O)O)C1c1ccc(OC)cc1 (stereo unspecified) | inconclusive: 3.35% | –
47 | Cc1ccccc1-c1nc2c3ccccc3nc(=S)n2[nH]1 | – | inconclusive: 22.4 µM [falling, partial curve, poor fit]
48 | CCCCC(=O)Nc1ccc(C(=O)Nc2ccc(S(=O)(=O)N3CCCC3)cc2)cc1 | inconclusive: 12.8% | –
49 | O=C(c1ccc(=O)oc1)N1CCN(c2ccc(F)cc2)CC1 | inactive: 1.14% | –
50 | O=C(N/N=C/CCc1ccccc1)c1ccc(CN2c3cccc4cccc(c34)S2(=O)=O)cc1 | inconclusive: 24.9% | –
51 | CCOC(=O)COc1ccc2c(c1)C(=O)CC(C)(c1cccnc1)O2 (stereo unspecified) | inactive: 1.3% | –

Part of the list above in order of count of non-hydrogen atoms, ascending.
Row | Compound | activity change, negative = inhibition | Potency
38 | COc1ccc(S(=O)(=O)n2cnc3ccccc32)cc1 | inactive: 2.31% | –
29 | COc1cc(CNc2ccc(N3CCCC3)cc2)ccc1OCc1ccccc1 | – | inconclusive: 29.1 µM [falling, single point]
48 | CCCCC(=O)Nc1ccc(C(=O)Nc2ccc(S(=O)(=O)N3CCCC3)cc2)cc1 | inconclusive: 12.8% | –
